# Measurements: the supplement of paper PMC4635364
# Counter-ions that a name gives are not always drawn. This is one part of the list. Repeats in this data set agree poorly, so a single value says little.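 ReNCell VM, a human fetal ventral-midbrain neural progenitor line, was differentiated without mitogens. Blinded raters scored images stained for doublecortin (early neurons) or tyrosine hydroxylase (dopaminergic neurons) against untreated wells (0 = no change). Scores were averaged across repeats and both raters, and compounds averaging 2 or more were selected as hits for retesting.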 *1 amine or outer side, *2 acyl side, *3 side chain or, on linkers, in order; H or OH if unused. Where a SMILES comes first, the peptide text is derived from it. Bridges are numbered along the chain shown (N, C = ends). [ ]: non-standard residue; d: D form. The star is where a group is joined. ξ: configuration not given here. X2 = N=C1NCCC([C@H](N[*:1])C(=O)[*:2])N1; ΔAla(Z-3-ureido) = NC(=O)N/C=C(\N)C(=O)O; ξβ3hOrn = NCCCC(N)CC(=O)*; Dap = NC[C@H](N)C(=O)O
# Tests used:
# ReNCell VM [1] = experiment: neuronal differentiation score (DCX+ cell fraction vs untreated, manual image score) (score (-3 to 3)); higher = more neuronal differentiation; details: 2 uM, 2 weeks
# ReNCell VM [2] = experiment: dopaminergic neuron differentiation score (TH+ cell fraction vs untreated, manual image score) (score (0 to 3)); higher = more TH+ dopaminergic neuron differentiation; details: 2 uM, 4 weeks, BDNF 10 ng/ml + GDNF 10 ng/ml
smiles,measurement,setting,value
COc1cc(O)c2c(=O)c(O)c(-c3ccccc3)oc2c1,neuronal differentiation score,ReNCell VM [1]; library: Spectrum,inactive: 0
same,dopaminergic neuron differentiation score,ReNCell VM [2]; library: Spectrum,inactive: 0
CCCCCCCCCCCCCCCC(=O)O[C@@H]1[C@@H](O)[C@@H](O)[C@@H]([C@H](NC(=O)[C@@H]2C[C@@H](CCC)CN2C)[C@H](C)Cl)O[C@@H]1SC,neuronal differentiation score,ReNCell VM [1]; library: Spectrum,inactive: 0
same,dopaminergic neuron differentiation score,ReNCell VM [2]; library: Spectrum,inactive: 0
C[C@@H]1C(=O)NC2=Nc3cccc(Cl)c3CN21 [Quazinone],neuronal differentiation score,ReNCell VM [1]; library: LOPAC,inactive: 1
same,dopaminergic neuron differentiation score,ReNCell VM [2]; library: LOPAC,inactive: 0
CC(C(=O)O)c1ccc(CC2CCCC2=O)cc1 (centres undefined),neuronal differentiation score,ReNCell VM [1]; library: Spectrum,inactive: 0
same,dopaminergic neuron differentiation score,ReNCell VM [2]; library: Spectrum,inactive: 0
C#C[C@]1(O)CC[C@H]2[C@@H]3CCC4=CC(=O)CC[C@@H]4[C@H]3CC[C@@]21C [Norethindrone],neuronal differentiation score,ReNCell VM [1]; library: Prestwick,inactive: 0
same,dopaminergic neuron differentiation score,ReNCell VM [2]; library: Prestwick,inactive: 0
COc1cc2c(cc1OC)[C@@H]1C(=O)c3ccc4c(c3O[C@@H]1CO2)C=CC(C)(C)O4,neuronal differentiation score,ReNCell VM [1]; library: Spectrum,inactive: 0
same,dopaminergic neuron differentiation score,ReNCell VM [2]; library: Spectrum,inactive: 0
CCCCN(CCCC)CCCOC(=O)c1ccc(N)cc1,neuronal differentiation score,ReNCell VM [1]; library: Spectrum,inactive: 0
same,dopaminergic neuron differentiation score,ReNCell VM [2]; library: Spectrum,inactive: 0
O=C(N/N=C/c1ccc([N+](=O)[O-])o1)c1ccc(O)cc1 [Nifuroxazide],neuronal differentiation score,ReNCell VM [1]; library: Prestwick,inactive: 0
same,dopaminergic neuron differentiation score,ReNCell VM [2]; library: Prestwick,inactive: 0
C[C@@H]1NC(=O)[C@@H](N)CNC(=O)[C@H](C2CCNC(=N)N2)NC(=O)/C(=C/NC(N)=O)NC(=O)[C@H](CNC(=O)CC(N)CCCN)NC1=O.N=C1NCC[C@H]([C@@H]2NC(=O)/C(=C/NC(N)=O)NC(=O)[C@H](CNC(=O)C[C@@H](N)CCCN)NC(=O)[C@H](CO)NC(=O)[C@@H](N)CNC2=O)N1 (H-[Dap]S[Dap](ξβ3hOrn)[ΔAla(Z-3-ureido)][X2]; lactam 1-C),neuronal differentiation score,ReNCell VM [1]; library: Spectrum,inactive: 0
same,dopaminergic neuron differentiation score,ReNCell VM [2]; library: Spectrum,inactive: 0
NS(=O)(=O)c1cc(C2(O)NC(=O)c3ccccc32)ccc1Cl (centres undefined) [Chlorthalidone],neuronal differentiation score,ReNCell VM [1]; library: Prestwick,inactive: 0
same,dopaminergic neuron differentiation score,ReNCell VM [2]; library: Prestwick,inactive: 0
O=C(NCCCN1CCCCCC1)C(c1ccccc1)C1CCCCC1 (centres undefined),neuronal differentiation score,ReNCell VM [1]; library: Tocriscreen,inactive: 0
same,dopaminergic neuron differentiation score,ReNCell VM [2]; library: Tocriscreen,inactive: 0
c1ccc(COCCCc2c[nH]cn2)cc1 [Proxyfan Oxalate],neuronal differentiation score,ReNCell VM [1]; library: Tocriscreen,inactive: 0
same,dopaminergic neuron differentiation score,ReNCell VM [2]; library: Tocriscreen,inactive: 0
c1ccc(N2CCN(Cc3nc4ccccc4[nH]3)CC2)nc1 [ABT 724 trihydrochloride],neuronal differentiation score,ReNCell VM [1]; library: Tocriscreen,inactive: 0
same,dopaminergic neuron differentiation score,ReNCell VM [2]; library: Tocriscreen,inactive: 0
Clc1ccc(Cn2c(CN3CCCC3)nc3ccccc32)cc1,neuronal differentiation score,ReNCell VM [1]; library: Spectrum,inactive: 0
same,dopaminergic neuron differentiation score,ReNCell VM [2]; library: Spectrum,inactive: 0
Cc1[nH]c(/C=C2\C(=O)Nc3ccc(S(=O)(=O)Cc4c(Cl)cccc4Cl)cc32)c(C)c1C(=O)N1CCC[C@@H]1CN1CCCC1,neuronal differentiation score,ReNCell VM [1]; library: Tocriscreen,inactive: 0
same,dopaminergic neuron differentiation score,ReNCell VM [2]; library: Tocriscreen,inactive: 0
CC(C)[C@@H]1CC[C@@H](C)C[C@H]1O,neuronal differentiation score,ReNCell VM [1]; library: Spectrum,inactive: 0
same,dopaminergic neuron differentiation score,ReNCell VM [2]; library: Spectrum,inactive: 0
N=C(N)NCC1COC2(CCCCC2)O1 (centres undefined),neuronal differentiation score,ReNCell VM [1]; library: Spectrum,inactive: 0
same,dopaminergic neuron differentiation score,ReNCell VM [2]; library: Spectrum,inactive: 0

# Taken from the results shown for reference:
smiles,measurement,setting,value
C[C@@H]1NC(=O)[C@@H](N)CNC(=O)[C@H](C2CCNC(=N)N2)NC(=O)/C(=C/NC(N)=O)NC(=O)[C@H](CNC(=O)CC(N)CCCN)NC1=O.N=C1NCC[C@H]([C@@H]2NC(=O)/C(=C/NC(N)=O)NC(=O)[C@H](CNC(=O)C[C@@H](N)CCCN)NC(=O)[C@H](CO)NC(=O)[C@@H](N)CNC2=O)N1 (H-[Dap]S[Dap](ξβ3hOrn)[ΔAla(Z-3-ureido)][X2]; lactam 1-C),dopaminergic neuron differentiation score,ReNCell VM [2]; library: Spectrum,inactive: 0
NS(=O)(=O)c1cc(C2(O)NC(=O)c3ccccc32)ccc1Cl (centres undefined) [Chlorthalidone],neuronal differentiation score,ReNCell VM [1]; library: Prestwick,inactive: 0
